{"source": "PubChem BioAssay AID1259254 | NCATS | 2017", "purpose": "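Gene knock-downs that lead to re-replication, shown by excess G2 DNA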 (primary screen)", "system": "human HCT116 colorectal cancer cells", "knock-down reagent": "single siRNA against human genes", "duration": "3 days", "measured": "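Imaged Hoechst DNA stain sorts each cell into a cycle phase by DNA amount; per plate, G2 fraction set to 0% for non-targeting and 100% for GMNN siRNA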", "direction": "G2 robust z-score and G2 cells, % of GMNN control: higher = more G2 cells, more excess DNA replication", "hit rule": "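An siRNA counts as active if its G2 robust z-score lies at least 5 MADs above the screen median; here such calls match roughly 38% of GMNN control or more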", "note": "The whole screen tested about 59,000 reagents; shown is an unselected part. In the full data, about 1,550 (2.6%) were called active. 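G2 share is only a proxy for re-replication; each gene was hit by three separate siRNAs, and active genes were retested.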 Unmarked entries are inactive. Reagents against one gene are numbered here. Further read-outs or replicates are left out here. The record does not give: the amount of reagent."}
{"gene": "ZNF77 (zinc finger protein 77)", "reagent no.": 1, "G2 robust z-score": -0.153, "G2 cells, % of GMNN control": 1.89}
{"gene": "ZNF77 (zinc finger protein 77)", "reagent no.": 2, "G2 robust z-score": -0.371, "G2 cells, % of GMNN control": 0.357}
{"gene": "ZNF77 (zinc finger protein 77)", "reagent no.": 3, "G2 robust z-score": 0.0683, "G2 cells, % of GMNN control": 3.45}
{"gene": "PSMC3 (proteasome 26S subunit, ATPase 3)", "reagent no.": 1, "G2 robust z-score": 2.39, "G2 cells, % of GMNN control": 19.8}
{"gene": "PSMC3 (proteasome 26S subunit, ATPase 3)", "reagent no.": 2, "G2 robust z-score": 1.05, "G2 cells, % of GMNN control": 10.4}
{"gene": "PSMC3 (proteasome 26S subunit, ATPase 3)", "reagent no.": 3, "G2 robust z-score": 0.136, "G2 cells, % of GMNN control": 3.93}

An excerpt from above, limited to “G2 cells, % of GMNN control”:
ZNF77 (zinc finger protein 77) #2	0.357
ZNF77 (zinc finger protein 77) #3	3.45

Additional records follow.
{"gene": "NDRG1 (N-myc downstream regulated 1)", "reagent no.": 1, "G2 robust z-score": 0.173, "G2 cells, % of GMNN control": 4.18}
{"gene": "NDRG1 (N-myc downstream regulated 1)", "reagent no.": 2, "G2 robust z-score": 0.171, "G2 cells, % of GMNN control": 4.17}
{"gene": "NDRG1 (N-myc downstream regulated 1)", "reagent no.": 3, "G2 robust z-score": 0.727, "G2 cells, % of GMNN control": 8.08}
{"gene": "SLC28A1", "reagent no.": 1, "G2 robust z-score": -0.992, "G2 cells, % of GMNN control": -4.01}
{"gene": "SLC28A1", "reagent no.": 2, "G2 robust z-score": -1.03, "G2 cells, % of GMNN control": -4.28}
{"gene": "SLC28A1", "reagent no.": 3, "G2 robust z-score": -0.427, "G2 cells, % of GMNN control": -0.0343}
